Laboratory results from patent US10792289B2 (Horizon Orphan LLC, priority 2009, dated 2020).
At least one compound was matched to its structure with a doubt left.

Columns and labels:
[1] = Study drug formulation pH and osmolality; type: physicochemical; details: study drug solution
stable CF patients [2] = assay: Phase 1b study: pulmonary function tests (FEV1); type: in vivo, human
Procedure: All patients had had P. aeruginosa cultured from sputum within the previous 24 months and at the screening visit. Study drug was administered twice daily for up to 14 days at three doses by aerosol using a PART eFlow device. Respirable delivered doses (RDD) were approximately 40 mg, 80 mg, and 120 mg per treatment, corresponding to loaded doses of 78 mg, 175 mg, and 260 mg, respectively. Thus, the estimated total daily RDDs were 80 mg, 160 mg, and 240 mg. Study drugs were administered at 30 mg/ml (for 40 mg dose) or 50 mg/ml (for 80 mg and 120 mg doses).
In Table 3, relative change from baseline (CBG) was calculated as ‘Result’ FEV1 minus ‘Baseline’ FEV1 divided by ‘Baseline’ FEV1.

stable CF patients [3] = assay: Phase 2 study: CFQ-R questionnaire; type: in vivo, human; details: 240 mg BID
Procedure: The following dosage regimens (as nebulizer loaded doses) were evaluated: 120 mg QD (daily); 240 mg QD (daily); and 240 mg BID (twice daily).
Patients were assessed on Day 1, 7, 14, and 28, and then up to 28 days after completion of study drug, namely, Days 42 and 56. The end of the study was defined as the last visit of the last patient.
Efficacy was evaluated by microbiologic assessment of sputum samples, time to need for anti-pseudomonal antimicrobials, the Cystic Fibrosis Questionaire-Revised (CFQ-R), and pulmonary function tests. […] Pair-wise comparisons between all the treatment arms were conducted as secondary analyses.
Patients completed the CFQ-R questionnaire with domains that included: respiratory, body image, digestion, eating, emotion, health perception, physical, role/school, social, treatment burden, vitality, and weight.

C[C@H]1COc2c(N3CCN(C)CC3)c(F)cc3c(=O)c(C(=O)O)cn1c23 [Levofloxacin, levofloxacin]
Osmolality [1]: 350-500 mOsm/kg | pH [1]: 5-7 | FEV1, minimum, maximum (stable CF patients [2]; 40 mg RDD BID, Day 1 predose baseline): 1.58, 3.50 | FEV1, minimum, maximum (stable CF patients [2]; 40 mg RDD BID, Day 2 predose): 1.57, 3.60 | FEV1, minimum, maximum (stable CF patients [2]; 40 mg RDD BID, Day 7): 1.49, 3.48 | FEV1, minimum, maximum (stable CF patients [2]; 40 mg RDD BID, Day 14 predose): 1.55, 3.38 | FEV1, minimum, maximum (stable CF patients [2]; 40 mg RDD BID, Day 21/ET): 1.46, 3.42 | FEV1, minimum, maximum (stable CF patients [2]; 80 mg RDD BID, Day 1 predose baseline): 1.17, 3.19 | FEV1, minimum, maximum (stable CF patients [2]; 80 mg RDD BID, Day 2 predose): 1.13, 3.46 | FEV1, minimum, maximum (stable CF patients [2]; 80 mg RDD BID, Day 7): 1.20, 3.79 | FEV1, minimum, maximum (stable CF patients [2]; 80 mg RDD BID, Day 14 predose): 1.19, 3.21 | FEV1, minimum, maximum (stable CF patients [2]; 80 mg RDD BID, Day 21/ET): 1.06, 2.82 | FEV1, minimum, maximum (stable CF patients [2]; 120 mg RDD BID, Day 1 predose baseline): 1.43, 4.71 | FEV1, minimum, maximum (stable CF patients [2]; 120 mg RDD BID, Day 2 predose): 1.40, 4.72 | FEV1, minimum, maximum (stable CF patients [2]; 120 mg RDD BID, Day 7): 1.79, 4.99 | FEV1, minimum, maximum (stable CF patients [2]; 120 mg RDD BID, Day 14 predose): 1.74, 4.78 | FEV1, minimum, maximum (stable CF patients [2]; 120 mg RDD BID, Day 21/ET): 1.49, 4.87 | Patients having at least a 20% increase in FEV1 (stable CF patients [2]; 120 mg dose group): 4 of 9 | CFQ-R respiratory score (stable CF patients [3]; EE, Day 14): statistically significant improvement in respiratory score | CFQ-R eating score (stable CF patients [3]; MITT, Day 28): statistically significant improvement
